# Measurements from the supplement of paper PMC4635364.
# Where a name gives a salt, the structure may show the parent alone. The list shows a part of the results. This data set is noisy: repeats of one test often differ as much as different tests do.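 Cells: ReNCell VM human fetal ventral-midbrain neural progenitors, differentiated mitogen-free. Blinded raters compared doublecortin-stained (early neurons) or tyrosine hydroxylase-stained (dopaminergic neurons) images with untreated wells, where 0 means no change. After repeats and both raters were averaged, compounds scoring 2 or above became hits for retesting.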
# System: ReNCell VM
# Experiment: neuronal differentiation score (DCX+ cell fraction vs untreated, manual image score) (score (-3 to 3)); higher = more neuronal differentiation
# Conditions: library: Prestwick; 2 uM; 2 weeks
row,Structure (SMILES),neuronal differentiation score
1,CC(C)c1cccc(C(C)C)c1O [Propofol],inactive: 0
2,O=c1c2ccccc2[se]n1-c1ccccc1 [Ebselen],inactive: 0
3,C[C@]12CC[C@H](O)C[C@H]1CC[C@@H]1[C@@H]2C[C@@H](O)[C@]2(C)[C@@H](C3=CC(=O)OC3)CC[C@]12O [Digoxigenin],inactive: 0
4,C[C@]12CC[C@H](O)C[C@H]1CC[C@@H]1[C@@H]2CC[C@]2(C)[C@@H](C3=CC(=O)OC3)CC[C@]12O [Digitoxigenin],inactive: 0
5,NCCCNCCSP(=O)(O)O [Amifostine],inactive: 0
6,"CC[C@@]1(O)C(=O)OCc2c1cc1n(c2=O)Cc2cc3ccccc3nc2-1 [Camptothecine (S,+)]",inactive: 0
7,CO[C@]12C[C@@H](COC(=O)c3cncc(Br)c3)CN(C)[C@@H]1Cc1cn(C)c3cccc2c13 [Nicergoline],inactive: 0
8,S=C(NC1CCCCC1)N1CCC(c2cnc[nH]2)CC1 [Thioperamide maleate],inactive: 0
9,CCCC(C)(COC(N)=O)COC(=O)NC(C)C (stereo not drawn) [Carisoprodol],inactive: 0

# Same assay, conditions: library: Tocriscreen; 2 uM; 2 weeks
row,Structure (SMILES),neuronal differentiation score
1,CC1=NN=C(c2ccc(N)cc2)c2cc3c(cc2C1)OCO3,inactive: 0
2,CC(=O)NCCc1c[nH]c2ccccc12 [N-Acetyltryptamine],inactive: 0
3,N=C(N)NN [Aminoguanidine hydrochloride],inactive: 0
4,C/C(O)=C(\C#N)C(=O)Nc1cc(Br)ccc1Br,inactive: 0
5,CCOC(=O)c1cncn1[C@H](C)c1ccccc1 [Etomidate],inactive: 0
6,c1ccc2nc(N3CCNCC3)ccc2c1 [Quipazine dimaleate],inactive: 0
7,CC[C@@H](CO)NC(=O)[C@@H]1C=C2c3cccc4[nH]cc(c34)C[C@H]2N(C)C1 [Methylergometrine maleate],inactive: 0
8,O=C(Cc1ccc(Cl)c(Cl)c1)N1CCCCC1CN1CCCC1 (stereo not drawn),inactive: 0
9,Oc1ccc2c3c1O[C@H]1c4[nH]c5c(c4C[C@@]4(O)[C@@H](C2)N(CC2CC2)CC[C@]314)C[C@@]1(O)[C@H]2Cc3ccc(O)c4c3[C@@]1(CCN2CC1CC1)[C@H]5O4 [nor-Binaltorphimine dihydrochloride],inactive: 0
10,C[C@@H]1O[C@@H](O[C@H]2C[C@@H](O)[C@]3(CO)[C@H]4[C@H](O)C[C@]5(C)[C@@H](C6=CC(=O)OC6)CC[C@]5(O)[C@@H]4CC[C@]3(O)C2)[C@H](O)[C@H](O)[C@H]1O [Ouabain],inactive: 0
11,NCCc1c[nH]c2ccc(C(N)=O)cc12 [5-Carboxamidotryptamine maleate],inactive: 0
12,O=c1[nH]oc2c1CCNC2 [THIP hydrochloride],inactive: 0
13,O=C(CCCN1CCC2(CC1)C(=O)NCN2c1ccccc1)c1ccc(F)cc1 [Spiperone hydrochloride],inactive: 0
14,CCC1(C2=NCCN2)Cc2ccccc2O1 (stereo not drawn) [Efaroxan hydrochloride],inactive: 0
15,CC(=O)[C@H]1CC[C@H]2[C@@H]3CC[C@H]4C[C@](C)(O)CC[C@]4(C)[C@H]3CC[C@]12C [Ganaxolone],inactive: 0
16,O=C(O)c1nn(Cc2ccc(Cl)cc2Cl)c2ccccc12 [Lonidamine],inactive: 0
17,CO[C@]12C[C@@H](COC(=O)c3cncc(Br)c3)CN(C)[C@@H]1Cc1cn(C)c3cccc2c13 [Nicergoline],inactive: 0
18,Nc1ccncc1 [4-Aminopyridine],inactive: 0
19,O=C(N[C@H]1CN2CCC1CC2)c1ccc(Cl)cc1,inactive: 0
20,COc1ccc(-n2nc(C(F)(F)F)cc2-c2ccc(Cl)cc2)cc1,inactive: 0

# System: ReNCell VM
# Experiment: dopaminergic neuron differentiation score (TH+ cell fraction vs untreated, manual image score) (score (0 to 3)); higher = more TH+ dopaminergic neuron differentiation
# Conditions: library: LOPAC; 2 uM; 4 weeks; BDNF 10 ng/ml + GDNF 10 ng/ml
row,Structure (SMILES),dopaminergic neuron differentiation score
1,CC(C)N(CCC(C(N)=O)(c1ccccc1)c1ccccn1)C(C)C (stereo not drawn) [Disopyramide],inactive: 0
2,CC1=NN=C(c2ccc(N)cc2)c2cc3c(cc2C1)OCO3,inactive: 0
3,CC(=O)NCCc1c[nH]c2ccccc12 [N-Acetyltryptamine],inactive: 0
4,CN(C)C(=O)Oc1ccc[n+](C)c1 [Pyridostigmine bromide],inactive: 0
5,N=C(N)NN [Aminoguanidine hydrochloride],inactive: 0
6,C/C(O)=C(\C#N)C(=O)Nc1cc(Br)ccc1Br,inactive: 0
7,c1ccc2nc(N3CCNCC3)ccc2c1 [Quipazine dimaleate],inactive: 0
8,O=C(Cc1ccc(Cl)c(Cl)c1)N1CCCCC1CN1CCCC1 (stereo not drawn),inactive: 0
9,Oc1ccc2c3c1O[C@H]1c4[nH]c5c(c4C[C@@]4(O)[C@@H](C2)N(CC2CC2)CC[C@]314)C[C@@]1(O)[C@H]2Cc3ccc(O)c4c3[C@@]1(CCN2CC1CC1)[C@H]5O4 [nor-Binaltorphimine dihydrochloride],inactive: 0
10,C[C@@H]1O[C@@H](O[C@H]2C[C@@H](O)[C@]3(CO)[C@H]4[C@H](O)C[C@]5(C)[C@@H](C6=CC(=O)OC6)CC[C@]5(O)[C@@H]4CC[C@]3(O)C2)[C@H](O)[C@H](O)[C@H]1O [Ouabain],inactive: 0
11,C=C(C)[C@H]1Cc2c(ccc3c2O[C@@H]2COc4cc(OC)c(OC)cc4[C@@H]2C3=O)O1 [Rotenone],inactive: 0
12,NCCc1c[nH]c2ccc(O)cc12 [Serotonin hydrochloride],inactive: 0
13,COc1ccc(OC)c(C(O)C(C)N)c1 (stereo not drawn) [Methoxamine hydrochloride],inactive: 0
14,COc1ccc2c(c1)[C@]13CCCC[C@@H]1[C@H](C2)N(C)CC3 [Dextromethorphan hydrobromide monohydrate],inactive: 0
15,CCCCc1ccc(C(=O)O)nc1 [Fusaric acid],inactive: 0
16,NCCc1c[nH]c2ccc(C(N)=O)cc12 [5-Carboxamidotryptamine maleate],inactive: 0
17,O=c1[nH]oc2c1CCNC2 [THIP hydrochloride],inactive: 0
18,CC(C)c1cccc(C(C)C)c1O [Propofol],inactive: 0
19,O=c1c2ccccc2[se]n1-c1ccccc1 [Ebselen],inactive: 0
20,O=C(CCCN1CCC2(CC1)C(=O)NCN2c1ccccc1)c1ccc(F)cc1 [Spiperone hydrochloride],inactive: 0
21,NCCCNCCSP(=O)(O)O [Amifostine],inactive: 0
22,CCC1(C2=NCCN2)Cc2ccccc2O1 (stereo not drawn) [Efaroxan hydrochloride],inactive: 0
23,CC(=O)[C@H]1CC[C@H]2[C@@H]3CC[C@H]4C[C@](C)(O)CC[C@]4(C)[C@H]3CC[C@]12C [Ganaxolone],inactive: 0
24,O=C(O)c1nn(Cc2ccc(Cl)cc2Cl)c2ccccc12 [Lonidamine],inactive: 0
25,Nc1ccncc1 [4-Aminopyridine],inactive: 0
26,O=C(N[C@H]1CN2CCC1CC2)c1ccc(Cl)cc1,inactive: 0
27,COc1ccc(-n2nc(C(F)(F)F)cc2-c2ccc(Cl)cc2)cc1,inactive: 0
28,S=C(NC1CCCCC1)N1CCC(c2cnc[nH]2)CC1 [Thioperamide maleate],inactive: 0
29,CCCC(C)(COC(N)=O)COC(=O)NC(C)C (stereo not drawn) [Carisoprodol],inactive: 0

# Rewritten as tab-separated lines: 4 of the compounds above
row	Structure (SMILES)	dopaminergic neuron differentiation score
6	C/C(O)=C(\C#N)C(=O)Nc1cc(Br)ccc1Br	inactive: 0
9	Oc1ccc2c3c1O[C@H]1c4[nH]c5c(c4C[C@@]4(O)[C@@H](C2)N(CC2CC2)CC[C@]314)C[C@@]1(O)[C@H]2Cc3ccc(O)c4c3[C@@]1(CCN2CC1CC1)[C@H]5O4 [nor-Binaltorphimine dihydrochloride]	inactive: 0
14	COc1ccc2c(c1)[C@]13CCCC[C@@H]1[C@H](C2)N(C)CC3 [Dextromethorphan hydrobromide monohydrate]	inactive: 0
27	COc1ccc(-n2nc(C(F)(F)F)cc2-c2ccc(Cl)cc2)cc1	inactive: 0
